# Data as given in the supplement of paper PMC10849652.
# Amino acid sequences for entries named in this document (tags omitted). A change or cut given only in a name is not applied to a line headed by its entry.
# UniProt Q9UBF1: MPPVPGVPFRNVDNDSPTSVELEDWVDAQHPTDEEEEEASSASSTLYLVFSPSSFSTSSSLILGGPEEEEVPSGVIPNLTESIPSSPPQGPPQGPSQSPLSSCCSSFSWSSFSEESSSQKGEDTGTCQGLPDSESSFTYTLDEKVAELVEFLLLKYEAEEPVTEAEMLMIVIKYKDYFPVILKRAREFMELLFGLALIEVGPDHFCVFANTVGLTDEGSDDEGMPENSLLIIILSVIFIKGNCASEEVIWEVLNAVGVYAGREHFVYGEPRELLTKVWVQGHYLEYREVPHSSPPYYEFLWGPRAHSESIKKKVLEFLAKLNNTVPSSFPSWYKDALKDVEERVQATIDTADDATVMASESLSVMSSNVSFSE
# UniProt P27361, whole entry, looked up: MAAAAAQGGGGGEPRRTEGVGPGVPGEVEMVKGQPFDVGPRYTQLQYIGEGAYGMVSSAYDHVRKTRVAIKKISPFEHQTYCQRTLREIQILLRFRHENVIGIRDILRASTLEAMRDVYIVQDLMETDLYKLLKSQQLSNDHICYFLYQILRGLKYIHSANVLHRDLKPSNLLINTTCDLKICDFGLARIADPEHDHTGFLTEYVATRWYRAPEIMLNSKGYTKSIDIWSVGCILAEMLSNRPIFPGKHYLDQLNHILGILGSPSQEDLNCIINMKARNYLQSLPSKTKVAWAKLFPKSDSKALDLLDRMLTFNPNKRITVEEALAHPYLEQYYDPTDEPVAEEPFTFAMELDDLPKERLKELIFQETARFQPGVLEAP
# UniProt Q9NQ48: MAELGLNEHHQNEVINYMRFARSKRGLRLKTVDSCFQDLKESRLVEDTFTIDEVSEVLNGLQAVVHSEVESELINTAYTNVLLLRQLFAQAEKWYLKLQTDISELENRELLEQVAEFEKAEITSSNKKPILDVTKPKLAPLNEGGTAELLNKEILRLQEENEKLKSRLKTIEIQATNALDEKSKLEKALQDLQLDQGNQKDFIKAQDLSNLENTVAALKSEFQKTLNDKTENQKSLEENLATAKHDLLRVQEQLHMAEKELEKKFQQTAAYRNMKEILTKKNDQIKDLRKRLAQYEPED
# UniProt O60337: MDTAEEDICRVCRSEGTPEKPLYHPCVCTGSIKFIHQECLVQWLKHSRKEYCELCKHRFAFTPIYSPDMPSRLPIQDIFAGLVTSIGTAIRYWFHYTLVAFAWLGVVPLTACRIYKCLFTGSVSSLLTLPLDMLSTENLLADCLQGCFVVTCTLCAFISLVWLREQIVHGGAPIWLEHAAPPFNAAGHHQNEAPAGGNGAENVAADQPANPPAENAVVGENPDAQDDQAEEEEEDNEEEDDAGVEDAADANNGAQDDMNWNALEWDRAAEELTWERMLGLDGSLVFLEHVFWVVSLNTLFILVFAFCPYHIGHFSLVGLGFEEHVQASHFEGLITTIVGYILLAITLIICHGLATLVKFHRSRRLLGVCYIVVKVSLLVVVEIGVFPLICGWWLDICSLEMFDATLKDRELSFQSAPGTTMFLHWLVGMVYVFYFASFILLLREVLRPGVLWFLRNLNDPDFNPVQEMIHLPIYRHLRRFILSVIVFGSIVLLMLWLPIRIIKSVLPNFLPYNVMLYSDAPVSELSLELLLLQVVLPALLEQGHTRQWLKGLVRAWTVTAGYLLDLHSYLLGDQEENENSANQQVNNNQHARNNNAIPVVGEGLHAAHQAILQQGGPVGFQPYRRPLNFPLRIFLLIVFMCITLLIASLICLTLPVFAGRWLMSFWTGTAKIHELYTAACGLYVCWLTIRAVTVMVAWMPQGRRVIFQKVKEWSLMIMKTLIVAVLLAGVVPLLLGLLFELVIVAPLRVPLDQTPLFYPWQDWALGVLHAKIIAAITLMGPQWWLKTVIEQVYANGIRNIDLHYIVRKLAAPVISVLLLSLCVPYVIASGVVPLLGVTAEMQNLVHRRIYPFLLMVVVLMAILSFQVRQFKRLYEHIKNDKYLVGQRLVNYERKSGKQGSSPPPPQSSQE
# UniProt Q16706: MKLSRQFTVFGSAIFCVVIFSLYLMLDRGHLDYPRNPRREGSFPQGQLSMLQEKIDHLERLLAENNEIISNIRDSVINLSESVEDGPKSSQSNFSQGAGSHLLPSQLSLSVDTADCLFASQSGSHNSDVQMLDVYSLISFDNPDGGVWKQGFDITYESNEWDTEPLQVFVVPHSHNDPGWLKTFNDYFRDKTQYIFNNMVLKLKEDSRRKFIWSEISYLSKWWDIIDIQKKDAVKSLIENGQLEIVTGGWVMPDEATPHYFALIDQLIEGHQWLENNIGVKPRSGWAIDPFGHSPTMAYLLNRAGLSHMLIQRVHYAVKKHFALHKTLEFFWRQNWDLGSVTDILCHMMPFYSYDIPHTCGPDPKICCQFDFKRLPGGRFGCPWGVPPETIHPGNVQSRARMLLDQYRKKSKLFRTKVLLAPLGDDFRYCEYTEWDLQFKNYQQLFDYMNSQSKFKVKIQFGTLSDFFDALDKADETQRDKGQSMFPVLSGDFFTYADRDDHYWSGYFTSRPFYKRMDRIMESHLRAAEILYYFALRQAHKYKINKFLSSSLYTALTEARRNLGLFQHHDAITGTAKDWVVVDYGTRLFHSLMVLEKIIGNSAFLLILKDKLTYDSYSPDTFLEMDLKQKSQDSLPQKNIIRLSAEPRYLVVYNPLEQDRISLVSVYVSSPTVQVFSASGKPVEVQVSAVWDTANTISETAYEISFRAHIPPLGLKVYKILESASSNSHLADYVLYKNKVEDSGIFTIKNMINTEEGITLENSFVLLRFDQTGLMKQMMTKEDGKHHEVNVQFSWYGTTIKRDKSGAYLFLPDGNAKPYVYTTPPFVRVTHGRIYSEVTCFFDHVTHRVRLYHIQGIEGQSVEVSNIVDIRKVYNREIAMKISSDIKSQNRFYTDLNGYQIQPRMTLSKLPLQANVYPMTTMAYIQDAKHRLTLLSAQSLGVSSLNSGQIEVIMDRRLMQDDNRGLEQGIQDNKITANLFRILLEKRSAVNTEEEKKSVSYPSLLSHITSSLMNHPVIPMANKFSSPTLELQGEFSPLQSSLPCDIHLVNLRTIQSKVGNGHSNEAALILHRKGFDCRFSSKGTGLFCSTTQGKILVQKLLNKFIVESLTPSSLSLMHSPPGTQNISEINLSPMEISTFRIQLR
# UniProt P49006: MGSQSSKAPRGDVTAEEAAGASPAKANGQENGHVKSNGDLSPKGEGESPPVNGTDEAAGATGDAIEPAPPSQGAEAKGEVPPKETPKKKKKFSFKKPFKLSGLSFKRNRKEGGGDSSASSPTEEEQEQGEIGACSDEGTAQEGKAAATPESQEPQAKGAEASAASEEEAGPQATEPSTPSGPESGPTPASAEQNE
# UniProt Q15013: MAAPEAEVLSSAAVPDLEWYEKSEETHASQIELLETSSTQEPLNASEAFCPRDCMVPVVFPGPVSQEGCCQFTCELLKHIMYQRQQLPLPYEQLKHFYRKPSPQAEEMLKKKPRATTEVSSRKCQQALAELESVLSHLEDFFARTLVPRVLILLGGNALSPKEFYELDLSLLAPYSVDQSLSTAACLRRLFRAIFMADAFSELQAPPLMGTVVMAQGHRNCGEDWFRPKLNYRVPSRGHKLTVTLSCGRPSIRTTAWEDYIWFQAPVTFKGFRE
# UniProt Q9NTJ4: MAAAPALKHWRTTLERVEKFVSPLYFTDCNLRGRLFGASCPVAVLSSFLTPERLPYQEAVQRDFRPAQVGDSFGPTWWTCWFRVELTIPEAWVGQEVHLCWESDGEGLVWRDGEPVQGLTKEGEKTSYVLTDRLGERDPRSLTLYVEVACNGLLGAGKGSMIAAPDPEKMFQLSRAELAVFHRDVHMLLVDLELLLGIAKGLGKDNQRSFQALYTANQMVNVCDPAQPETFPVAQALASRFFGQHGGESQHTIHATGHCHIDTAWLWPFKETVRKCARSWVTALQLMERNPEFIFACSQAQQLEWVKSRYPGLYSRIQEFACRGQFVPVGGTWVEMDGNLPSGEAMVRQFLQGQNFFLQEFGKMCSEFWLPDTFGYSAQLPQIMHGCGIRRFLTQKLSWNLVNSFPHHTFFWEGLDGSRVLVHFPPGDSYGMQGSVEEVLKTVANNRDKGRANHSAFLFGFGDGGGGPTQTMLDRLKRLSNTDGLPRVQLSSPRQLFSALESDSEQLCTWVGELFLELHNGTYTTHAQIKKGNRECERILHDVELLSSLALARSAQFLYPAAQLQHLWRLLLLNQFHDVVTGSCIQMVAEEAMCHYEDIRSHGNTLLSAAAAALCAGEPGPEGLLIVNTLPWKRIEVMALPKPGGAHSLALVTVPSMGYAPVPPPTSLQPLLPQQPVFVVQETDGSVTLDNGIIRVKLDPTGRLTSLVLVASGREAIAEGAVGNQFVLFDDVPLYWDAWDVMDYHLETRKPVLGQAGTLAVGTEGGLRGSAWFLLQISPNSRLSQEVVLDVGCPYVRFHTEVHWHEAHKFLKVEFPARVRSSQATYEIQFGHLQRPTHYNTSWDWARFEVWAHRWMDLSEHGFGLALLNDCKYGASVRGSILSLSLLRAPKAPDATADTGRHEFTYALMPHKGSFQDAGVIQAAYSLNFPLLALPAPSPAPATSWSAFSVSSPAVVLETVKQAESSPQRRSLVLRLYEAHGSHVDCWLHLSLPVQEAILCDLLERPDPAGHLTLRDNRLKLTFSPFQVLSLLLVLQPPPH
# UniProt Q9NQ29: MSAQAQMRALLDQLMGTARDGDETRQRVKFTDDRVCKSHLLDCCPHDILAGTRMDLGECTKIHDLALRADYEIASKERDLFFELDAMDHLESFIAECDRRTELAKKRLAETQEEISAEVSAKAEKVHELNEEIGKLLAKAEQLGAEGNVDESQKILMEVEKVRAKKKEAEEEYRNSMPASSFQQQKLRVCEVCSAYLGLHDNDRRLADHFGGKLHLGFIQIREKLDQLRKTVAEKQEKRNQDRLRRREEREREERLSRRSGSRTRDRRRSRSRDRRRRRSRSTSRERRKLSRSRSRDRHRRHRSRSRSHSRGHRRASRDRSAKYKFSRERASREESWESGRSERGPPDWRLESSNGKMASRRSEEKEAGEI
# UniProt O14733: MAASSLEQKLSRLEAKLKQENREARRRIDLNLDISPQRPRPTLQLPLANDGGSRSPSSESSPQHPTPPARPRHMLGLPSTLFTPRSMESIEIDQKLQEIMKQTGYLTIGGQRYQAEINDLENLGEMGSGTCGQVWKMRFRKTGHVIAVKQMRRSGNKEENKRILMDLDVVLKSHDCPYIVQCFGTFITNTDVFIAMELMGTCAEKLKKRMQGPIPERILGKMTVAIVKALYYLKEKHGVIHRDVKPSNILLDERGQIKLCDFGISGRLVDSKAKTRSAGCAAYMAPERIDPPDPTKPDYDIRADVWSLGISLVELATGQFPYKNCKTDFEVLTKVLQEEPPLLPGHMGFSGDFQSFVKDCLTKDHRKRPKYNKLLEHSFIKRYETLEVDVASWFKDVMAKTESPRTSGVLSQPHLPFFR
# UniProt P45983: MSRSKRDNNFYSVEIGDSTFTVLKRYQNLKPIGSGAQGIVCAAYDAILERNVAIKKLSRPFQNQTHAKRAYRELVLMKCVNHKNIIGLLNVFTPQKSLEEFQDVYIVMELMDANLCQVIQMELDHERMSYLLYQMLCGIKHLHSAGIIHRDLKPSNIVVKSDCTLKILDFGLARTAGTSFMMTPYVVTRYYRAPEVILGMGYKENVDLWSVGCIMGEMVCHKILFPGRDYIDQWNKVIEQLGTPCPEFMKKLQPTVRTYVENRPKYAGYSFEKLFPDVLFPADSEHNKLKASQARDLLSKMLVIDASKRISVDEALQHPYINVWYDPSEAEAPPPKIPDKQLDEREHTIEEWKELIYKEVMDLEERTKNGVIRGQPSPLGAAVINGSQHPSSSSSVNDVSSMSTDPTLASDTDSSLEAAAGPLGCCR
# UniProt O60476: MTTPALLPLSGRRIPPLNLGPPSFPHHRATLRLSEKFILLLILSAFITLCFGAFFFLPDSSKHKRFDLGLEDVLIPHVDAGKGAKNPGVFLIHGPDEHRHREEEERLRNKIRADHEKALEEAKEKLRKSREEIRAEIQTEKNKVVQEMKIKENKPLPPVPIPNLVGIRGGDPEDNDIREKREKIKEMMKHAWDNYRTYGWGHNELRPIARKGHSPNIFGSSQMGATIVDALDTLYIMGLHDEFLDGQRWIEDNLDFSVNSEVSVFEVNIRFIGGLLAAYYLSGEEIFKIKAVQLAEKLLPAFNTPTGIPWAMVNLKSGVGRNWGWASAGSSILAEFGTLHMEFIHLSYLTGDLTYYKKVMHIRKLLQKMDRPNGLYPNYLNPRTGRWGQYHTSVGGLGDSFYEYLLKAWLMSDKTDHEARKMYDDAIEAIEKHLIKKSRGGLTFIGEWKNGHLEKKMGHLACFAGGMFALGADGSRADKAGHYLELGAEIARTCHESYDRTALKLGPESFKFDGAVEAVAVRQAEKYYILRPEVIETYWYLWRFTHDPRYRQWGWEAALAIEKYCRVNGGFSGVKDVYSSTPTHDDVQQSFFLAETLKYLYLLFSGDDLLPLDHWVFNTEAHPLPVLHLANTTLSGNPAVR
# The list shows a part of the results.
# Key:
# Test in all cases: log2 fold change, soluble protein after heating vs DMSO (PISA); higher = thermal stabilisation; K562 lysate, 10 uM; active = over 0.2 and 3.5 SD of the protein, either way, in both replicates (recomputed)
# [1] = compound: CS(=O)(=O)CCNCc1ccc(-c2ccc3ncnc(Nc4ccc(OCc5cccc(F)c5)c(Cl)c4)c3c2)o1 [lapatinib]
# How it was run: (§1)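 K562 pellets were dounce-homogenised in PBS pH 7.4 with 1 mM MgCl2, and the crude extract at 1 mg/mL protein was treated with 10 μM compound for 30 min. Aliquots were heated for 3 min across 48°C-58°C, pooled, and brought to 0.5% NP-40 at 4°C; soluble protein was the supernatant after 21,000xg for 90 min. Soluble protein was quantified by TMTpro 16plex LC-MS/MS with channel sums equalised, and reported as log2 fold change in thermal stability against DMSO controls, with values from duplicates.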
# [2] = compound: CS(=O)(=O)N1CCN(Cc2cc3nc(-c4cccc5[nH]ncc45)nc(N4CCOCC4)c3s2)CC1 [pictilisib]
# How it was run: as §1
# [3] = compound: C[C@@H](Oc1cc(-c2cnn(C3CCNCC3)c2)cnc1N)c1c(Cl)ccc(F)c1Cl [crizotinib]
# How it was run: as §1
# [4] = compound: C[C@H](C1=CC=C(C=C1)C(=O)NC2=C3C=CNC3=NC=C2)N
# How it was run: as §1
# [5] = compound: C[C@H](Nc1ncnc2nc[nH]c12)c1cc2cccc(Cl)c2c(=O)n1-c1ccccc1 [duvelisib]
# How it was run: as §1
# [6] = compound: Cc1cc(Nc2cc(CN3CCOCC3)c3nc(C)c(Cc4ccc(Cl)cc4F)n3n2)n[nH]1 [gandotinib]
# How it was run: as §1
# [7] = compound: Cc1cc(Nc2cc(N3CCN(C)CC3)nc(Sc3ccc(NC(=O)C4CC4)cc3)n2)n[nH]1 [tozasertib]
# How it was run: as §1
# [8] = compound: Cc1ccc(-n2nc(C(C)(C)C)cc2NC(=O)Nc2ccc(OCCN3CCOCC3)c3ccccc23)cc1 [doramapimod]
# How it was run: as §1
# [9] = compound: Cc1ccc(NC(=O)c2ccc(CN3CC[C@H](N(C)C)C3)c(C(F)(F)F)c2)cc1Nc1nccc(-c2cncnc2)n1 [bafetinib]
# How it was run: as §1
# [10] = compound: Cc1cccc(CC(=O)N2CCc3c2ccc(-c2cn(C)c4ncnc(N)c24)c3F)n1
# How it was run: as §1
# [11] = compound: Cc1cn(-c2cc(NC(=O)c3ccc(C)c(Nc4nccc(-c5cccnc5)n4)c3)cc(C(F)(F)F)c2)cn1 [nilotinib]
# How it was run: as §1
# [12] = compound: Cc1nc(Nc2n[nH]c3c2CN(C(=O)N[C@H](CN(C)C)c2ccccc2)C3(C)C)c2sccc2n1
# How it was run: as §1
# [13] = compound: Cc1nc(Nc2ncc(C(=O)Nc3c(C)cccc3Cl)s2)cc(N2CCN(CCO)CC2)n1 [dasatinib]
# How it was run: as §1
# [14] = compound: Cc1ncc(-c2ccnc(Nc3ccc(S(C)(=O)=O)cc3)n2)n1C(C)C
# How it was run: as §1
# [15] = compound: Cn1cc(-c2ccc3c(c2)CCN3C(=O)Cc2cccc(C(F)(F)F)c2)c2c(N)ncnc21
# How it was run: as §1
# [16] = compound: Cn1cc(CNCC2CCN(c3ncc(C(=O)NO)cn3)CC2)c2ccccc21 [quisinostat]
# How it was run: as §1
# [17] = compound: Cn1cncc1[C@@](N)(c1ccc(Cl)cc1)c1ccc2c(c1)c(-c1cccc(Cl)c1)cc(=O)n2C [tipifarnib]
# How it was run: as §1
# [18] = compound: NC(=O)Nc1cc(-c2cccc(F)c2)sc1C(=O)N[C@H]1CCCNC1
# How it was run: as §1
# [19] = compound: NC(=O)c1cnc(N[C@@H]2CCCC[C@@H]2N)nc1Nc1cccc(-n2nccn2)c1
# How it was run: as §1
# [20] = compound: NC1(c2ccc(-c3nc4ccn5c(=O)[nH]nc5c4cc3-c3ccccc3)cc2)CCC1
# How it was run: as §1
Target,log2 fold change [1],log2 fold change [2],log2 fold change [3],log2 fold change [4],log2 fold change [5],log2 fold change [6],log2 fold change [7],log2 fold change [8],log2 fold change [9],log2 fold change [10],log2 fold change [11],log2 fold change [12],log2 fold change [13],log2 fold change [14],log2 fold change [15],log2 fold change [16],log2 fold change [17],log2 fold change [18],log2 fold change [19],log2 fold change [20]
MAGEC2 (UniProt Q9UBF1),inactive: -0.008,inactive: -0.011,inactive: -0.11,inactive: -0.154,inactive: 0.035,inactive: 0.017,inactive: 0.009,inactive: 0.014,inactive: -0.047,inactive: 0.01,inactive: 0.004,inactive: -0.026,inactive: 0.034,inactive: -0.02,inactive: 0.008,inactive: -0.227,inactive: 0.007,inactive: 0.008,inactive: 0.008,inactive: -0.068
MAPK3 (UniProt P27361),inactive: -0.028,inactive: 0,inactive: -0.01,inactive: -0.021,inactive: -0.01,inactive: 0.089,inactive: -0.038,inactive: -0.023,inactive: 0.021,inactive: -0.043,inactive: 0.009,active: 0.272,inactive: -0.026,inactive: 0.141,inactive: -0.019,inactive: 0.016,inactive: -0.013,inactive: 0.022,inactive: 0.094,inactive: -0.003
LZTFL1 (UniProt Q9NQ48),inactive: -0.004,inactive: -0.039,inactive: 0.028,inactive: 0.007,inactive: 0.013,inactive: -0.011,inactive: -0.015,inactive: -0.01,inactive: -0.021,inactive: -0.023,inactive: -0.017,inactive: 0.029,inactive: -0.013,inactive: -0.006,inactive: 0,inactive: 0,inactive: 0.015,inactive: 0.02,inactive: -0.026,inactive: 0.021
MARCHF6 (UniProt O60337),inactive: -0.039,inactive: 0.09,inactive: -0.118,inactive: -0.073,inactive: 0.103,inactive: -0.028,inactive: 0.004,inactive: 0.003,inactive: -0.105,inactive: -0.005,inactive: 0.164,inactive: -0.024,inactive: -0.136,inactive: 0.04,inactive: -0.169,inactive: -0.085,inactive: -0.179,inactive: -0.025,inactive: -0.023,inactive: -0.008
MAN2A1 (UniProt Q16706),inactive: 0.036,inactive: -0.007,inactive: 0,inactive: -0.019,inactive: 0.01,inactive: -0.023,inactive: 0.025,inactive: -0.006,inactive: 0.008,inactive: -0.017,inactive: 0.026,inactive: -0.022,inactive: -0.015,inactive: -0.001,inactive: 0.016,inactive: -0.01,inactive: -0.032,inactive: 0.019,inactive: -0.002,inactive: 0.008
MARCKSL1 (UniProt P49006),inactive: 0.039,inactive: -0.021,inactive: 0.118,inactive: 0.173,inactive: -0.004,inactive: -0.144,inactive: 0.011,inactive: -0.038,inactive: 0.092,inactive: -0.257,inactive: 0.015,inactive: 0.003,inactive: 0.061,inactive: 0.001,inactive: 0.026,inactive: 0.079,inactive: 0.041,inactive: 0.004,inactive: -0.054,inactive: 0.056
MAD2L1BP isoform 3 (UniProt Q15013),inactive: 0.017,inactive: -0.155,inactive: -0.094,inactive: 0.022,inactive: 0.048,inactive: -0.009,inactive: -0.071,inactive: 0.12,inactive: -0.041,inactive: 0.008,inactive: -0.028,inactive: 0.108,inactive: 0.016,inactive: -0.007,inactive: -0.026,inactive: -0.066,inactive: 0.018,inactive: -0.019,inactive: 0.048,inactive: -0.056
MARK2 (UniProt E9PC69),inactive: 0.003,inactive: 0.052,inactive: -0.14,inactive: 0.131,inactive: -0.068,inactive: -0.166,inactive: -0.233,inactive: 0.075,inactive: -0.071,inactive: 0.025,inactive: 0.019,inactive: 0.034,inactive: -0.03,inactive: 0.012,inactive: -0.047,inactive: 0.031,inactive: -0.019,inactive: -0.065,inactive: 0.002,inactive: -0.183
LZIC isoform 2 (UniProt Q8WZA0),inactive: -0.006,inactive: 0.009,inactive: 0.041,inactive: 0.001,inactive: 0.035,inactive: 0.026,inactive: -0.013,inactive: -0.022,inactive: -0.031,inactive: -0.037,inactive: 0.003,inactive: 0.019,inactive: 0.027,inactive: 0.025,inactive: -0.002,inactive: 0.072,inactive: -0.008,inactive: -0.046,inactive: 0.007,inactive: 0.009
MAN2C1 isoform 4 (UniProt Q9NTJ4),inactive: 0.047,inactive: -0.04,inactive: -0.005,inactive: -0.029,inactive: 0.031,inactive: 0.024,inactive: -0.028,inactive: -0.007,inactive: 0.031,inactive: 0.01,inactive: -0.097,inactive: 0.074,inactive: -0.008,inactive: -0.061,inactive: -0.033,inactive: -0.002,inactive: -0.071,inactive: 0,inactive: -0.004,inactive: -0.029
LUC7L (UniProt Q9NQ29),inactive: -0.022,inactive: -0.009,inactive: 0.097,inactive: -0.097,inactive: 0.006,active: -0.32,inactive: 0.012,inactive: -0.028,inactive: -0.022,inactive: 0.023,inactive: -0.027,inactive: -0.113,inactive: -0.032,inactive: -0.047,inactive: 0.023,inactive: 0.22,inactive: 0.033,inactive: -0.207,inactive: -0.014,inactive: 0.032
MAP2K7 isoform 4 (UniProt O14733),inactive: 0.004,inactive: 0.204,inactive: -0.05,inactive: 0.081,inactive: -0.048,inactive: -0.042,inactive: -0.04,inactive: 0.052,inactive: -0.06,inactive: 0.002,inactive: 0.017,inactive: -0.101,inactive: -0.093,inactive: 0,inactive: 0.22,inactive: 0.001,inactive: -0.024,inactive: 0.033,inactive: 0.001,inactive: 0.002
MAPK8 isoform 3 (UniProt P45983),inactive: -0.042,inactive: 0.192,inactive: -0.089,inactive: -0.022,inactive: -0.07,inactive: 0.281,inactive: -0.007,inactive: -0.049,inactive: -0.014,inactive: -0.037,inactive: 0.051,inactive: -0.007,inactive: 0.054,active: 0.326,inactive: 0.07,inactive: -0.139,inactive: 0.006,inactive: 0.093,inactive: 0.115,inactive: -0.062
MAN1A2 (UniProt O60476),inactive: 0.038,inactive: -0.038,inactive: -0.019,inactive: 0.088,inactive: -0.047,inactive: -0.142,inactive: -0.005,inactive: -0.032,inactive: -0.007,inactive: -0.09,inactive: 0.001,inactive: 0.005,inactive: -0.007,inactive: -0.008,inactive: 0.002,inactive: 0.066,inactive: 0.012,inactive: 0,inactive: -0.018,inactive: -0.01
MAPKAPK3 (UniProt Q16644),inactive: 0,inactive: -0.013,inactive: -0.026,inactive: 0.034,inactive: -0.038,inactive: -0.044,inactive: 0.046,inactive: -0.025,inactive: 0.026,inactive: -0.014,inactive: -0.024,inactive: 0.077,inactive: 0.023,inactive: -0.058,inactive: 0.016,inactive: 0.01,inactive: 0.017,inactive: 0.021,inactive: 0.013,inactive: 0.009

# Another view of some results above.
Target | log2 fold change [1] | log2 fold change [2] | log2 fold change [3] | log2 fold change [4] | log2 fold change [5] | log2 fold change [6] | log2 fold change [7] | log2 fold change [8] | log2 fold change [9] | log2 fold change [10] | log2 fold change [11] | log2 fold change [12] | log2 fold change [13] | log2 fold change [14] | log2 fold change [15] | log2 fold change [16] | log2 fold change [17] | log2 fold change [18] | log2 fold change [19] | log2 fold change [20]
LZTFL1 (UniProt Q9NQ48) | inactive: -0.004 | inactive: -0.039 | inactive: 0.028 | inactive: 0.007 | inactive: 0.013 | inactive: -0.011 | inactive: -0.015 | inactive: -0.01 | inactive: -0.021 | inactive: -0.023 | inactive: -0.017 | inactive: 0.029 | inactive: -0.013 | inactive: -0.006 | inactive: 0 | inactive: 0 | inactive: 0.015 | inactive: 0.02 | inactive: -0.026 | inactive: 0.021
MARCHF6 (UniProt O60337) | inactive: -0.039 | inactive: 0.09 | inactive: -0.118 | inactive: -0.073 | inactive: 0.103 | inactive: -0.028 | inactive: 0.004 | inactive: 0.003 | inactive: -0.105 | inactive: -0.005 | inactive: 0.164 | inactive: -0.024 | inactive: -0.136 | inactive: 0.04 | inactive: -0.169 | inactive: -0.085 | inactive: -0.179 | inactive: -0.025 | inactive: -0.023 | inactive: -0.008
